From patent US20230025525A1 (HELMHOLTZ ZENTRUM M NCHEN DEUTSCHES FORSCHUNGSZENTRUM F R …, published 2023) come the findings set out here.

Substitutions are numbered along the chain they refer to. Results are given in words; binding and its absence hold for the method and conditions named. Some entries that bind do so weakly or less than the wild type.

This experiment deals with T1, mouse IGFR-like receptor (mouse) (UniProt A2AFS3).
T1 sequence (looked up): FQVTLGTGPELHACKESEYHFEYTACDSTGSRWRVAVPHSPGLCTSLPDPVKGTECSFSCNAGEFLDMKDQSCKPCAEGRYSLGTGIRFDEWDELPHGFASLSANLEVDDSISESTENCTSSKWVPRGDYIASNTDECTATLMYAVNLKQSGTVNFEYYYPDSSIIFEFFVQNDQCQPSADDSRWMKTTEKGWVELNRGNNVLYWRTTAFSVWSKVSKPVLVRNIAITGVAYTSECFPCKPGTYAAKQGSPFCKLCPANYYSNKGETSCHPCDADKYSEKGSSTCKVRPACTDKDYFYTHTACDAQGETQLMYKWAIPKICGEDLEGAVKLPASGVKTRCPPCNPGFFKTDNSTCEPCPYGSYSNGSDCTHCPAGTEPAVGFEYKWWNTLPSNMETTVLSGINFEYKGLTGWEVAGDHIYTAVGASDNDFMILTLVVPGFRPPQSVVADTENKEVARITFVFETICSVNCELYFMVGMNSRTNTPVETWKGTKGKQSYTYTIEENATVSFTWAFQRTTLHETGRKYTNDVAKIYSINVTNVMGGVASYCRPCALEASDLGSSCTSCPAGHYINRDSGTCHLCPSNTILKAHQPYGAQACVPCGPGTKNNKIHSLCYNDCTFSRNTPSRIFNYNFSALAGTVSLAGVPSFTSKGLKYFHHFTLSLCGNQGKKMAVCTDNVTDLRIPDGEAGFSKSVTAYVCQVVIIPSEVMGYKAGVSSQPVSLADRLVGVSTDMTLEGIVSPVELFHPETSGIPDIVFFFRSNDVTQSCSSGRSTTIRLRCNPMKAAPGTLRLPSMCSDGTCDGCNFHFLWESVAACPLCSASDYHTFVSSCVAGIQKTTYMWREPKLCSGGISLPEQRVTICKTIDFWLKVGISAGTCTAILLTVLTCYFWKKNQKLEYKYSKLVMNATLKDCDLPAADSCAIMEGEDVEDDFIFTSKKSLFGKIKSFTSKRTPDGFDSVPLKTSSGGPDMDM
The experiment is described as follows: Western blot, Min6 cell lysate (weak). (In general: A western blot detects proteins with antibodies after separation by electrophoresis.)

B1: EIG-B 18B2 (antibody, V domains shown)
VH: QVQLKESGPGLVQPSQTLSLTCTVSGFSLTSYHISWVRQPPGKGLEWIAAISSGGDTYYNSLLKSRLSISRDTSKSQVFLKMNRLQTEDTAFYFCNGESYWGQGTLVTVSS
VL: DVVLTQSPATLSVTPGERISLSCRASENIDTYLHWFQQKPNESPRLLIKFASQSISGIPSRFSGSGSGRDFTLSINGVELEDLSIYYCQQGNILPYTFGAGTRLELKR
notes: Rat monoclonal antibody from a hybridoma; Only the variable regions are tied to the clone by name; also called EIG-B 1862
Regarding B1, the binding result was “binds”.

B2: EIG-B 10D9 (antibody, V domains shown)
VH: B1 VH
VL: B1 VL with R69T, R103K
notes: Rat monoclonal antibody from a hybridoma; Only the variable regions are tied to the clone by name; The constant regions are not tied to the clone
Turning to B2, the binding result was “binds”.

B3: EIG-D 26D7 (antibody, V domains shown)
VH: QVQLQQPGADLVRPGSSVKLSCKASGYSFTSYWMDWVKQRPGQGLEWIGNIYPSDGETHYNQKFKDKATLTVDKSSSTAYMQLSSLTSEDSAVYYCARLYSEYGSWGQGTTLTVSS
VL: DIVMTQSPSSLTVTTGEKVTMSCKSSQSLLNSGNQKNYLTWYQQRPGQPPKLLIYWASTRDSGVPDRFTGSGSGTDFTLTISSVQAADLAVYYCQNDYSYPLTFGAGTKLELKR
notes: Mouse monoclonal antibody from a hybridoma; Only the variable regions are tied to the clone by name; The constant regions are not tied to the clone
For the molecule B3, the binding entry is recorded as “binds”.
